PubChem BioAssay AID504784 | Drosophila RNAi Screening Center | 2011

- Aim: 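Genome-wide knock-down for genes giving too much or too little stored lipid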 (primary screen)
- Cell system: Drosophila Kc167 embryonic cells
- Knock-down reagent: long dsRNA against Drosophila genes, about 250 ng dsRNA per well
- Duration: 4 days
- Treatment: cells fed 400 µM oleic acid bound to BSA
- Measured: 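Microscope images give a droplet-to-nucleus area ratio, taken as log and converted to a screen-wide B-score; higher values mean greater lipid storage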
- Scale: droplet/nuclear area B-score: higher = more stored lipid (overstorage)
The deposit covers about 17,000 reagents; this is a random part of those with a known target gene and a result. 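Each column is one replicate's B-score; the combined score over replicates was not deposited, so single values may mislead.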 Names joined by + are all predicted targets of the reagent. Reagent sequences are not shown.

no.	target	amplicon	droplet/nuclear area B-score, replicate 1	droplet/nuclear area B-score, replicate 2	droplet/nuclear area B-score, replicate 3
1	CG13032	DRSC09912	0.0405	-0.05	
2	CG31937	DRSC00514	-0.534	0.969	
3	CG6983	DRSC10757	2.37	0.0925	
4	Axud1 (AXIN1 up-regulated 1)	DRSC00270	-0.997	0.0188	
5	CG7953	DRSC01902	0.317	0.107	
6	CG13445	DRSC09992	4.93	6.38	
7	CG5966	DRSC18394	-0.0188	-0.336	0.433
8	sPLA2 (secretory Phospholipase A2)	DRSC06041	-0.322	-0.869	
9	CG4238	DRSC00644	0.461	-2.74	
10	kibra	DRSC14533	-1.17	0.609	
11	kibra	DRSC16257	-1.69	0.0635	
12	kibra	DRSC23283	-0.0395	-0.0445	
13	jus (julius seizure)	DRSC14861	0.191	-1.09	
14	jus (julius seizure)	DRSC14862	0.614	-0.822	
15	jus (julius seizure)	DRSC23018	1.31	-1.07	
16	CG11151	DRSC19387	0.595	0.279	
17	Acp98AB (retired record)	DRSC21837	-0.674	0.334	
18	hbn (homeobrain)	DRSC04082	-1	2.4	
19	hbn (homeobrain)	DRSC04238	-0.574	1.46	0.731
20	hbn (homeobrain)	DRSC04239	-0.964	-1	
21	hbn (homeobrain)	DRSC22436	-1.56	-0.0539	
22	Obp93a (Odorant-binding protein 93a)	DRSC15220	-0.904	-0.842	
23	rhea	DRSC11300	-0.888	-0.557	
24	Pp1-13C (Protein phosphatase 1 at 13C)	DRSC20269	-0.775	4.46	
25	Pp1-13C (Protein phosphatase 1 at 13C)	DRSC23305	0.00268	1.07	
26	Zasp67 (Z band alternatively spliced PDZ-motif protein 67)	DRSC10169	0.0108	-0.224	
27	CG32821 (retired record)	DRSC22544	-0.658	-0.0314	
28	Naxe (NAD(P)HX epimerase)	DRSC18251	0.813	1.16	-0.841
29	CG3342	DRSC18304	-1.56	0.0451	-0.994
30	sosie	DRSC14636	-0.21	-0.0265	
31	sosie	DRSC21382	-0.259	0.00804	
32	Spt5	DRSC07556	-1.88	0.55	
33	CG15773	DRSC18079	0.0226	0.72	
34	CG14330	DRSC14809	-0.243	1.07	
35	fal (falten)	DRSC11087	-0.638	0.491	0.445
36	Nxf3 (Nuclear export factor 3)	DRSC21749	-0.249	-0.641	
37	Mdr50 (Multi drug resistance 50)	DRSC07467	0.0171	-0.0892	
38	Csp (Cysteine string protein)	DRSC11860	0.0466	-0.558	-0.695
39	CG42353 + CG42354	DRSC23154	-1.07	0.0741	
40	CG7966	DRSC16356	-1.43	3.36	
41	Gr57a (Gustatory receptor 57a)	DRSC06401	-0.236	-1.83	
42	Smg5 (Smg5 nonsense mediated mRNA decay factor)	DRSC03124	-1.11	0.122	
43	CG10286	DRSC12520	-0.0181	-0.00772	
44	CG11041	DRSC06025	-0.749	0.00306	
45	CG3984	DRSC15530	0.354	0.412	
46	hbs (hibris)	DRSC07627	0.0974	1.09	
47	CG16853	DRSC01877	-0.038	0.0723	
48	cbc (crowded by cid)	DRSC06957	0.62	0.0215	
49	elg1 (enhanced level of genomic instability 1)	DRSC10229	1.85	-0.0513	1.27
50	Osi22 (Osiris 22)	DRSC16442	-1.61	1.33	
51	CG32263	DRSC22431	-0.0317	0.149	
52	CG10348	DRSC02043	-0.695	-1.88	
53	CG10348	DRSC21908	0.139	0.834	
54	CG10348	DRSC23233	-1.27	-0.0816	
55	CG34375	DRSC14684	0.529	0.000403	
56	CG34375	DRSC14685	-1.53	1.27	
57	cbt (cabut)	DRSC00655	4.38	-0.0519	
58	CG3792	DRSC02725	-0.655	0.285	
59	TwdlT (TweedleT)	DRSC16677	-2.26	-0.919	
60	TwdlT (TweedleT)	DRSC21540	-0.334	2.77	
61	CG5727	DRSC02882	-0.107	0.336	
62	CG1835	DRSC20560	-0.545	-0.943	
63	CG32988	DRSC02692	0.104	-2.2	
64	CG3597	DRSC00617	0.00585	-1.91	
65	Fas1 (Fasciclin 1)	DRSC16669	-0.657	-0.858	
66	Dad	DRSC16642	0.796	-0.0287	
67	CG32109	DRSC09816	-0.755	0.289	
68	ND-49L (NADH dehydrogenase (ubiquinone) 49 kDa subunit-like)	DRSC14437	0.414	1.11	
69	Gld (Glucose dehydrogenase)	DRSC12595	-0.494	0.412	
70	Oatp58Db (Organic anion transporting polypeptide 58Db)	DRSC04364	-0.529	0.0753	
71	Had2 (beta Hydroxy acid dehydrogenase 2)	DRSC05971	-1.2	1.39	
72	spn-B (spindle B)	DRSC17063	0.583	0.279	
73	ohgt (ohgata)	DRSC15521	2.06	-0.0118	
74	CG32228	DRSC22296	0.212	-0.624	
75	Polr1B (RNA polymerase I subunit B)	DRSC00780	-0.672	-1.43	
76	CG18231	DRSC10307	-0.567	-0.0686	
77	CG14642	DRSC12228	0.396	0.859	-0.193
78	dsx (doublesex)	DRSC12649	3.55	-1.15	
79	dsx (doublesex)	DRSC16934	2.31	0.201	1.52
80	dsx (doublesex)	DRSC21495	-1.57	0.695	
81	tko (technical knockout)	DRSC18844	0.895	1.82	
82	RpL36A (Ribosomal protein L36A)	DRSC03055	2.72	2.75	
83	RpS23 (Ribosomal protein S23)	DRSC07169	4.46	12	

Targets listed so far whose target name starts with O or o:
target	amplicon	droplet/nuclear area B-score, replicate 1	droplet/nuclear area B-score, replicate 2	droplet/nuclear area B-score, replicate 3
Obp93a (Odorant-binding protein 93a)	DRSC15220	-0.904	-0.842	
Osi22 (Osiris 22)	DRSC16442	-1.61	1.33	
Oatp58Db (Organic anion transporting polypeptide 58Db)	DRSC04364	-0.529	0.0753	
ohgt (ohgata)	DRSC15521	2.06	-0.0118	
